The record followed here is article PMC10008583.

These are yes or no findings as the source states them, for the method shown. Binding seen in cells or lysates may run through a third protein. For part of these data: Binding calls can cover weak binding; strength is not graded here.

Experiment [1] addresses FLAG-USP22 N-terminal truncated mutant (human). Put plainly: co-IP; HEK293 cells transfected with expression plasmids of ZEB1 and USP22 (full length or truncated mutants) or vector for 24 h; whole cell lysates.
Experiment [2] addresses GST-USP22 N-terminal deletion mutant (human). Nature of the experiment: pull-down; GST pull-down: GST-USP22 deletion mutants with ZEB1 synthesized by in vitro transcription and translation kit; bound proteins analysed by western blot; only the target purified. (A western blot detects proteins with antibodies after separation by electrophoresis.)
The target of experiment [3] is GST-USP22 C-terminal deletion mutant (human). Described as above.

B1: ZEB1, expressed from plasmid in HEK293 cells (protein, UniProt P37275 1-1124)
chain: MADGPRCKRRKQANPRRNNVTNYNTVVETNSDSDDEDKLHIVEEESVTDAADCEGVPEDDLPTDQTVLPGRSSEREGNAKNCWEDDRKEGQEILGPEAQADEAGCTVKDDECESDAENEQNHDPNVEEFLQQQDTAVIFPEAPEEDQRQGTPEASGHDENGTPDAFSQLLTCPYCDRGYKRFTSLKEHIKYRHEKNEDNFSCSLCSYTFAYRTQLERHMTSHKSGRDQRHVTQSGCNRKFKCTECGKAFKYKHHLKEHLRIHSGEKPYECPNCKKRFSHSGSYSSHISSKKCISLIPVNGRPRTGLKTSQCSSPSLSASPGSPTRPQIRQKIENKPLQEQLSVNQIKTEPVDYEFKPIVVASGINCSTPLQNGVFTGGGPLQATSSPQGMVQAVVLPTVGLVSPISINLSDIQNVLKVAVDGNVIRQVLENNQANLASKEQETINASPIQQGGHSVISAISLPLVDQDGTTKIIINYSLEQPSQLQVVPQNLKKENPVATNSCKSEKLPEDLTVKSEKDKSFEGGVNDSTCLLCDDCPGDINALPELKHYDLKQPTQPPPLPAAEAEKPESSVSSATGDGNLSPSQPPLKNLLSLLKAYYALNAQPSAEELSKIADSVNLPLDVVKKWFEKMQAGQISVQSSEPSSPEPGKVNIPAKNNDQPQSANANEPQDSTVNLQSPLKMTNSPVLPVGSTTNGSRSSTPSPSPLNLSSSRNTQGYLYTAEGAQEEPQVEPLDLSLPKQQGELLERSTITSVYQNSVYSVQEEPLNLSCAKKEPQKDSCVTDSEPVVNVIPPSANPINIAIPTVTAQLPTIVAIADQNSVPCLRALAANKQTILIPQVAYTYSTTVSPAVQEPPLKVIQPNGNQDERQDTSSEGVSNVEDQNDSDSTPPKKKMRKTENGMYACDLCDKIFQKSSSLLRHKYEHTGKRPHECGICKKAFKHKHHLIEHMRLHSGEKPYQCDKCGKRFSHSGSYSQHMNHRYSYCKREAEERDSTEQEEAGPEILSNEHVGARASPSQGDSDERESLTREEDEDSEKEEEEEDKEMEELQEEKECEKPQGDEEEEEEEEEVEEEEVEEAENEGEEAKTEGLMKDDRAESQASSLGQKVGESSEQVSEEKTNEA
As to B1, in experiment [1], the binding entry is “binds”.

B2: ZEB1, in vitro translated (protein, UniProt P37275 1-1124)
chain: B1 chain
In the case of B2, the binding result is on record as “binds” in experiment [2] and “no binding” in experiment [3].
